The values below come from paper PMC4773767.

No constants are given. Whether binding was seen depends on the method and setting. In cells and extracts the contact can be indirect. For some assays here: Binding can be weak; no strength is given. For some assays here: Sequences can lack the tags named with a protein.

For assay [1], the target named is T1, FLAG-tagged Munc13-4 mutant 289–540 (mouse) (UniProt B2RUP2).
T1 sequence: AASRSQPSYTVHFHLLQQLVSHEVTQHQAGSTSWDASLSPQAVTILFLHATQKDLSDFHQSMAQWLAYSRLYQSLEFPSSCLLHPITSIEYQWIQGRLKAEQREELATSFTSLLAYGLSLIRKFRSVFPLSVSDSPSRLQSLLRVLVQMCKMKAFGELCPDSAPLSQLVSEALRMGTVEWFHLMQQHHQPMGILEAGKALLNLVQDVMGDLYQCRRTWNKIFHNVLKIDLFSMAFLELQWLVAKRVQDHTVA
In words: co-IP; COS7 cells co-transfected; lysed at 4 °C in 25 mM Tris-HCl pH 7.5, 125 mM NaCl, 1 mM MgCl2, 1% Triton X-100 without GTPγS (no nucleotide named, or 0.1 mM GDP in Fig. 5A); anti-FLAG (M2) or anti-HA (12CA5) on protein G-Sepharose overnight; blot with anti-HA (3F10) or anti-FLAG.

For assay [2], the target named is T2, FLAG-tagged Munc13-4 mutant 339–540 (mouse) (UniProt B2RUP2).
T2 sequence: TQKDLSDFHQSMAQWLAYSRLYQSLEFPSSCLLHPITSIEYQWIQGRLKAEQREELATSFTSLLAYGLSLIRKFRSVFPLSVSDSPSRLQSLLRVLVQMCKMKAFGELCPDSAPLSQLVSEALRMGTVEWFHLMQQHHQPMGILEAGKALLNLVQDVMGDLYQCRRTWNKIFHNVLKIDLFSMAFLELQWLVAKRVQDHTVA
The description is as above.

The target in assay [3] is T3, FLAG-tagged Munc13-4 mutant MHDs (mouse) (UniProt B2RUP2).
T3 sequence: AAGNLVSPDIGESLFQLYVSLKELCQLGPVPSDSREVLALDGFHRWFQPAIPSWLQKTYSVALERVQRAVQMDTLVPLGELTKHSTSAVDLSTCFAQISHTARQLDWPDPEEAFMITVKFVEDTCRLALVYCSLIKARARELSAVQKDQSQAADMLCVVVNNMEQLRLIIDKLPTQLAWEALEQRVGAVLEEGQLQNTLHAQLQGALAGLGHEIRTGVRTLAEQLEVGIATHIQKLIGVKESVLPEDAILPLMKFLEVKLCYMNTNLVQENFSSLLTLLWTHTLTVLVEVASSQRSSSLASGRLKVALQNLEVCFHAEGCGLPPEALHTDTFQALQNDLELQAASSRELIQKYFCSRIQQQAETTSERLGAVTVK
The description is as above.

The target of assay [4] is FLAG-Rab37 (rat). In words: co-IP; COS7 cells co-transfected; lysed at 4 °C in 25 mM Tris-HCl pH 7.5, 125 mM NaCl, 1 mM MgCl2, 1% Triton X-100 with 0.1 mM GTPγS; anti-FLAG (M2) on protein G-Sepharose overnight; blot with anti-HA (3F10) or anti-FLAG.
The target of assay [5] is FLAG-Rab37 (rat). In words: co-IP; COS7 cells co-transfected; lysed at 4 °C in 25 mM Tris-HCl pH 7.5, 125 mM NaCl, 1 mM MgCl2, 1% Triton X-100 without GTPγS (no nucleotide named, or 0.1 mM GDP in Fig. 5A); anti-FLAG (M2) or anti-HA (12CA5) on protein G-Sepharose overnight; blot with anti-HA (3F10) or anti-FLAG.
The target of assay [6] is Rab37 expressed in transfected RBL-2H3 cells (rat). In words: co-IP; lysate from transfected RBL-2H3 cells pretreated with DSP, with or without antigen stimulation (Fig. S15).
Assay [7] addresses HA-tagged dominant-active Rab37 mutant (HA-Rab37DA) (rat). In words: co-IP; COS7 cells co-transfected; lysed at 4 °C in 25 mM Tris-HCl pH 7.5, 125 mM NaCl, 1 mM MgCl2, 1% Triton X-100 without GTPγS (no nucleotide named, or 0.1 mM GDP in Fig. 5A); anti-FLAG (M2) or anti-HA (12CA5) on protein G-Sepharose overnight; blot with anti-HA (3F10) or anti-FLAG.
Assay [8] concerns the target HA-tagged dominant-negative Rab37 mutant (HA-Rab37DN) (rat). Described as above.

Turning to “HA-tagged dominant-active Rab37 mutant (HA-Rab37DA) (rat)”, the binding entry is “no binding” in assay [1], “no binding” in assay [2] and “binds” in assay [3].

B1: HA-Munc13-4 (protein, UniProt B2RUP2-2 1-1083)
chain: MATHLSHPQRRPLLRQAIKIRRRRVRDLQDPPPQATQEVQVQSHHFSPEERDLLYEEALYTVLHRLGQPEPNHVKEASELLSYLQEAFQVQPEEHQQMLRRVRELEKPVFCLKATVKQAKGILGKDVSGFSDPYCLLGIEQKVGVAEGSPVSRRRQKAVVKHTIPEEETHRTQVKSQTLNPVWDETFILEFEDIANASFHLDMWDLDTVESVRQKLGELTDLHGLRRIFKEARKDKGQDDFLGNVVLRLQDLRCREDQWFPLEPCTETYPDRGQCHLQFQFIHKRRATAASRSQPSYTVHFHLLQQLVSHEVTQHQAGSTSWDASLSPQAVTILFLHATQKDLSDFHQSMAQWLAYSRLYQSLEFPSSCLLHPITSIEYQWIQGRLKAEQREELATSFTSLLAYGLSLIRKFRSVFPLSVSDSPSRLQSLLRVLVQMCKMKAFGELCPDSAPLSQLVSEALRMGTVEWFHLMQQHHQPMGILEAGKALLNLVQDVMGDLYQCRRTWNKIFHNVLKIDLFSMAFLELQWLVAKRVQDHTVAAGNLVSPDIGESLFQLYVSLKELCQLGPVPSDSREVLALDGFHRWFQPAIPSWLQKTYSVALERVQRAVQMDTLVPLGELTKHSTSAVDLSTCFAQISHTARQLDWPDPEEAFMITVKFVEDTCRLALVYCSLIKARARELSAVQKDQSQAADMLCVVVNNMEQLRLIIDKLPTQLAWEALEQRVGAVLEEGQLQNTLHAQLQGALAGLGHEIRTGVRTLAEQLEVGIATHIQKLIGVKESVLPEDAILPLMKFLEVKLCYMNTNLVQENFSSLLTLLWTHTLTVLVEVASSQRSSSLASGRLKVALQNLEVCFHAEGCGLPPEALHTDTFQALQNDLELQAASSRELIQKYFCSRIQQQAETTSERLGAVTVKVSYRASEQRLRVELLSASSLLPLDSNGSSDPFVQLTLEPRHEFPEVAPRETQKHKKELHPLFDETFEFLVPAEPCQKAWACLLLTVLDHDRLGADDLEGEAFLPLCRVPGLTDCAEPGEAPQMRLPLTYPAPNGDPILRLLESRKGDREAQAFVKLRRQRAKQASQHAP
Take B1: the binding entry in the assay with FLAG-Rab37 (rat) [4] and with FLAG-Rab37 (rat) [5] was “binds” throughout.

B2: Munc13-4 expressed in transfected RBL-2H3 cells (protein, UniProt B2RUP2-2 1-1083)
chain: B1 chain
Consider B2, for which the binding entry in assay [6] was “binds”.

B3: FLAG-Munc13-4 (protein, UniProt B2RUP2-2 1-1083)
chain: B1 chain
Turning to B3, the binding entry in assay [7] and in assay [8] was “binds” in each case.
